Assay results reported in patent US8119681B2, “2-[1-phenyl-5-hydroxy or methoxy-4alpha-methyl-hexahydrocyclopenta [ƒ]indazole-5-YL]ethyl phenyl derivatives as glucocorticoid receptor ligands” (Merck Sharp & Dohme Corp., priority 2006, dated 2012).
Some results were stated once for a whole list of compounds, not compound by compound. For some assays here: At least one compound was matched to its structure with a doubt left.

Columns and labels:
[1] = biological target: T1, glucocorticoid receptor (GR) (Homo sapiens, UniProt P04150); assay: Ligand binding assay (GR BIND), 3H-dexamethasone displacement, HeLa cell lysate; details: calculated using DEX as a reference
T1 construct: endogenous in cells; host or cells: HeLa (ATCC) cell lysate supernatant
T1 sequence (P04150 1-777): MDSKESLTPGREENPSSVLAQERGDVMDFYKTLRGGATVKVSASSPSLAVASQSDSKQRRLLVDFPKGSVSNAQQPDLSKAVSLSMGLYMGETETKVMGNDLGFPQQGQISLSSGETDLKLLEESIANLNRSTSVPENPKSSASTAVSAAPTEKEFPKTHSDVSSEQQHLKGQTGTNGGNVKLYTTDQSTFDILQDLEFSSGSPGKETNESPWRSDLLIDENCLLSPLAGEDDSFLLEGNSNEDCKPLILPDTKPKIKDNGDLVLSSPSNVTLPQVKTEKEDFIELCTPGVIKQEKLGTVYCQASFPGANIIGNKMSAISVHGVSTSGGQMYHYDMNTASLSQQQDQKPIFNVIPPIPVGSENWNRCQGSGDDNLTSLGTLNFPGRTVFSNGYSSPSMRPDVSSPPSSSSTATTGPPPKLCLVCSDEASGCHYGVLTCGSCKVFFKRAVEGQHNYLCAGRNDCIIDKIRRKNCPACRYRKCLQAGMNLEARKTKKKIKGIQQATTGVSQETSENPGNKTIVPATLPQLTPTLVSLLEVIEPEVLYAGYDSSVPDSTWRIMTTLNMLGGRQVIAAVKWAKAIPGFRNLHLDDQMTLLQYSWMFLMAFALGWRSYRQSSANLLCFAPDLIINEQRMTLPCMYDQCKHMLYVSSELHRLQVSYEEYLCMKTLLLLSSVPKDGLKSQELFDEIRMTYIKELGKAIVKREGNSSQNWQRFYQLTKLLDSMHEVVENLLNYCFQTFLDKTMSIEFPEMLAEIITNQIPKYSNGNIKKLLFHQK
Procedure: Binding Buffer: TEGM (10 mM Tris-HCl, 1 mM EDTA, 10% glycerol, 1 mM beta-mercaptoethanol, 10 mM Sodium Molybdate, pH 7.2)
50% HAP Slurry: Calbiochem Hydroxylapatite, Fast Flow, in 10 mM Tris, pH 8.0 and 1 mM EDTA.
Wash Buffer: 40 mM Tris, pH7.5, 100 mM KCl, 1 mM EDTA and 1 mM EGTA.
Dexmethasone-methyl-^3H, (DEX*); (Amersham cat# TRK645)
Dexamethasone (DEX) (Sigma, cat# D1756):
Phenol red-free Trypsin-EDTA is diluted in the same PBS 1:10. The cell layers are rinsed with 1× Trypsin, extra Trypsin is poured out, and the cell layers are incubated at 37° C. for ˜2 min. The flask is tapped and checked for signs of cell detachment. Once the cells begin to slide off the flask, the complete media is added. The cells are counted at this point, then diluted to the appropriate concentration and split into flasks or dishes for further culturing (Usually 1:3 to 1:6 dilution).
Preparation of Hela Cell Lysate
The cell pellet is washed twice with TEGM (10 mM Tris-HCl, 1 mM EDTA, 10% glycerol, 1 mM beta-mercaptoethanol, 10 mM Sodium Molybdate, pH 7.2). After the final wash, the cells are resuspended in TEGM at a concentration of 10^7 cells/mL. The cell suspension is snap frozen in liquid nitrogen or ethanol/dry ice bath and transferred to −80° C. freezer on dry ice. Before setting up the binding assay, the frozen samples are left on ice-water to just thaw (˜1 hr). Then the samples are centrifuged at 12,500 g to 20,000 g for 30 min at 4° C. The supernatant is used to set-up assay right away. If using 50 μL of supernatant, the test compound can be prepared in 50 μL of the TEGM buffer.
Procedure for Multiple Compound Screening
1×TEGM buffer is prepared, and the isotope-containing assay mixture is prepared in the following order: EtOH (2% final concentration in reaction), 3H-DEX (Amersham Biosciences) and 1×TEGM. [e.g. For 100 samples, 200 μL (100×2) of EtOH+4.25 μL of 1:10 ^3H-Dex stock+2300 μL (100×23) 1×TEGM]. The compound is serially diluted, e.g., if starting final conc. is 1 μM, and the compound is in 25 μL of solution, for duplicate samples, 75 μL of 4×1 μM solution is made and 3 μL of 100 μM is added to 72 μL of buffer, and 1:5 serial dilution.
25 μL of ^3H-DEX (6 nM) trace and 25 μL compound solution are first mixed together, followed by addition of 50 μL receptor solution. The reaction is gently mixed, spun briefly at about 200 rpm and incubated at 4° C. overnight. 100 μL of 50% HAP slurry is prepared and added to the incubated reaction which is then vortexed and incubated on ice for 5 to 10 minutes. The reaction mixture is vortexed twice more to resuspend HAP while incubating reaction. The samples in 96-well format are then washed in wash buffer using The FilterMate™ Universal Harvester plate washer (Packard). The washing process transfers HAP pellet containing ligand-bound expressed receptor to Unifilter-96 GF/B filter plate (Packard). The HAP pellet on the filter plate is incubated with 50 μL of MICROSCINT (Packard) scintillant for 30 minutes before being counted on the TopCount microscintillation counter (Packard). IC50s are calculated using DEX as a reference.

human GR = biological target: T2, human GR (Homo sapiens, UniProt P04150); assay: Trans-Activation Modulation of Glucocorticoid Receptor (GRAMMER), MMTV-LUC reporter gene; assay type: cell-based; parameters: endogenous in cells; details: GRAMMER versus GITAR
T2 sequence (P04150 1-777): T1 sequence (P04150 1-777)
Excerpt: Trans-Activation Modulation of Glucocorticoid Receptor (GRAMMER)
This assay assesses the ability of test compounds to control transcription from the MMTV-LUC reporter gene in lung adenocarcinoma A549 cells or HeLa cells, a human […] cell line that naturally expresses the human GR. The assay measures induction of a modified MMTV LTR/promoter linked to the LUC reporter gene.
The routine transient assay consists of plating 7,000-25,000 cells/well of a white, clear-bottom 96-well plate. Alternatively, 384-well plates can be used at a cell concentration of 10,000/well. The media that the cells are plated in is “exponential growth medium” which consists of phenol red-free RPMI1640 containing 10% FBS, 4 mM L-glutamine, 20 mM HEPES, 10 ug/mL human insulin, and 20 ug/mL gentamicin. Incubator conditions are 37° C. and 5% CO2. The transfection is done in batch mode. The cells are trypsinized and counted to the right cell number in the proper amount of fresh media. It is then gently mixed with the FuGene6/DNA mix and plated onto the 96 or 384-well plate, all the wells receive 100 uL or 40 uL, respectively, of medium+lipid/DNA complex then incubated 37° C. overnight. The transfection cocktail consists of serum-free OptiMEM, FuGene6 reagent and DNA. The manufacturer's (Roche Biochemical) protocol for cocktail setup is as follows: The lipid to DNA ratio is approximately 2.5:1 and the incubation time is 20 min at room temperature. Sixteen to 24 hours after transfection, the cells are treated with dexamethasone to a final concentration of 10 nM as well as the compound of interest, such that final DMSO (vehicle) concentration is equal to or less than 1%. Each plate also contains samples that are treated with 10 nM dexamethasone alone, which is used as the 100% activity control. The cells are exposed to the compounds for 24 hours. After 24 hours, the cells are lysed by a Promega cell culture lysis buffer for approximately 30 min and then the luciferase activity in the extracts is assayed in the 96-well format luminometer. In 384-well format, Steady-Glo (Promega) or Steady-Lite (PerkinElmer) can be used by adding an equal volume of reagent to the media present in each well. Activity induced by 10 nM dexamethasone alone is set at 100% activity. Antagonist activity is calculated by determining the decrease in dexamethasone-induced activity in response to compound treatment relative to samples that were treated with dexamethasone alone. […] This transactivation assay can be performed in an agonist and antagonist mode to identify these different activities. […]

Compound	IC50 [1] [µM]	maximal transactivation activity compared with maximal transrepression activity (human GR)
C[C@]12Cc3cnn(-c4cccc(F)c4)c3C=C1CC[C@@]2(O)CCc1ccccc1C(N)=O [Example 187, 2-{2-[(4αS,5R)-1-(3-fluorophenyl)-5-hydroxy-4α-methyl-1,4,4α,5,6,7-hexahydrocyclopenta[f]indazol-5-yl]ethyl}benzamide]	< 1	maximal transactivation activity less then maximal transrepression activity
C[C@]12Cc3cnn(-c4ccc(F)cc4)c3C=C1CC[C@@]2(O)CCc1ccccc1S(C)(=O)=O [Example 19, (4αS,5R)-1-(4-fluorophenyl)-4α-methyl-5-{2-[2-(methylsulfonyl)phenyl]ethyl}-1,4,4α,5,6,7-hexahydrocyclopenta[f]indazol-5-ol]	< 1	maximal transactivation activity less then maximal transrepression activity
CC(=O)Nc1c(F)cccc1CC[C@]1(O)CCC2=Cc3c(cnn3-c3ccc(F)cc3)C[C@@]21C [Example 128, N-(2-fluoro-6-{2-[(4αS,5R)-1-(4-fluorophenyl)-5-hydroxy-4α-methyl-1,4,4α,5,6,7-hexahydrocyclopenta[f]indazol-5-yl]ethyl}phenyl)acetamide]	< 1	maximal transactivation activity less then maximal transrepression activity
C[C@]12Cc3cnn(-c4ccc(F)c(F)c4)c3C=C1CC[C@@]2(O)CCc1cccc(Cl)c1C(N)=O [Example 176, 2-chloro-6-{2-[(4αS,5R)-1-(3,4-difluorophenyl)-5-hydroxy-4α-methyl-1,4,4α,5,6,7-hexahydrocyclopenta[f]indazol-5-yl]ethyl}benzamide]	< 1	maximal transactivation activity less then maximal transrepression activity
Cc1cccc(CC[C@]2(O)CCC3=Cc4c(cnn4-c4ccc(F)c(F)c4)C[C@@]32C)c1C(N)=O [Example 186, 2-{2-[(4αS,5R)-1-(3,4-difluorophenyl)-5-hydroxy-4α-methyl-1,4,4α,5,6,7-hexahydrocyclopenta[f]indazol-5-yl]ethyl}-6-methylbenzamide]	< 1	maximal transactivation activity less then maximal transrepression activity
CCNC(=O)C(C)(C)NC(=O)c1ccccc1CC[C@]1(O)CCC2=Cc3c(cnn3-c3ccc(F)cc3)C[C@@]21C [Example 71, N-[2-(ethylamino)-1,1-dimethyl-2-oxoethyl]-2-{2-[(4αS,5R)-1-(4-fluorophenyl)-5-hydroxy-4α-methyl-1,4,4α,5,6,7-hexahydrocyclopenta[f]indazol-5-yl]ethyl}benzamide]	< 1	maximal transactivation activity less then maximal transrepression activity
C[C@]12Cc3cnn(-c4cccc(F)c4)c3C=C1CC[C@@]2(O)CCc1ccccc1S(N)(=O)=O [Example 140, 2-{2-[(4αS,5R)-1-(3-fluorophenyl)-5-hydroxy-4α-methyl-1,4,4α,5,6,7-hexahydrocyclopenta[f]indazol-5-yl]ethyl}benzenesulfonamide]	< 1	maximal transactivation activity less then maximal transrepression activity
C[C@]12Cc3cnn(-c4ccc(F)cc4)c3C=C1CC[C@@]2(O)CCc1ccccc1-c1cscn1 [Example 158, (4αS,5R)-1-(4-fluorophenyl)-4α-methyl-5-{2-[2-[1,3-thiazol-4-yl)phenyl]ethyl}-1,4,4α,5,6,7-hexahydrocyclopenta[f]indazol-5-ol]	< 1	maximal transactivation activity less then maximal transrepression activity
C[C@]12Cc3cnn(-c4ccc(F)cc4)c3C=C1CC[C@@]2(O)CCc1cccc(F)c1CC(N)=O [Example 194, 2-(2-fluoro-6-{2-[(4αS,5R)-1-(4-fluorophenyl)-5-hydroxy-4α-methyl-1,4,4α,5,6,7-hexahydrocyclopenta[f]indazol-5-yl]ethyl}phenyl)acetamide]	< 1	maximal transactivation activity less then maximal transrepression activity
C[C@]12Cc3cnn(-c4ccc(F)cc4)c3C=C1CC[C@@]2(O)CCc1ccccc1C(=O)N1CC[C@@H](O)C1 [Example 58, (4αS,5R)-1-(4-fluorophenyl)-5-[2-(2-{[(3R)-3-hydroxypyrrolidin-1-yl]carbonyl}phenyl)ethyl]-4α-methyl-1,4,4α,5,6,7-hexahydrocyclopenta[f]indazol-5-ol]	< 1	maximal transactivation activity less then maximal transrepression activity
